# Results from PubChem BioAssay AID588343 (Broad Institute, 2011).
# Screen size: about 1,200 compounds; about 650 (54%) were called active. The set was probably picked from earlier hits. Inconclusive results, whose numbers are uncertain, are shown with a selection of clear calls.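 How the source made its calls: active means signal-lowering curve whose fitted half-maximal concentration is at or below ten times the top valid dose tested; inconclusive means flat curve with 30 to 70% inhibition, or poor fit; inactive means signal increase, flat within 30%, or potency beyond limit.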
# Test: inhibitors of LMP1-driven NF-kB reporter, dose response, cell-based, HEK293, luciferase, cherry-pick (AID 588343);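 further: 0% = median of neutral control wells and -100% = MG132 positive control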
# Conditions: HEK293 LMP1 TES2 NF-kB luciferase reporter, 16 h; at 35 µM (top of the series) unless noted
row,Structure (SMILES),"activity change, negative = inhibition"
1,CC(C)(C)n1nc(-c2ccc(F)cc2)c2c(N)ncnc21,inconclusive: -37.8%
2,O=C(N/N=C/c1cc(Cl)ccc1O)c1cccnc1,inconclusive: -37.6%
3,CCOc1ccc(C(=O)NC(=S)N(Cc2ccccc2)Cc2ccccc2)cc1,inconclusive: -45.4%
4,COc1cc(C2NC(=O)NC(C)=C2C(=O)OC2CCCC(C)C2)cc(Br)c1O (stereo not given),inactive: 28%
5,CCCc1cc(=O)[nH]c(SCC(=O)NC2CCCCC2)n1,inactive: 0.752%
6,OCCCNc1nccc(-c2cc(Nc3cccc(Cl)c3)ncn2)n1,inconclusive: -98.4%
7,CCCn1c(/C=N/Nc2nc3ccccc3[nH]2)nc2ccccc21,inconclusive: -48.8%
8,CC1CCCN(C(=O)COC(=O)c2n[nH]c3ccccc23)C1 (stereo not given),inactive: -9.33%
9,CCC(C)n1ncn(-c2ccc(N3CCN(c4ccc(OCC5COC(Cn6cncn6)(c6ccc(Cl)cc6Cl)O5)cc4)CC3)cc2)c1=O (stereo not given),inconclusive: 92%
10,CCCCCCc1cc2cc(-c3nnc(-c4ccccc4)o3)c(=O)oc2cc1O,inconclusive: -32.5%
11,O=[N+]([O-])c1cc(/C=N\O)ccc1Oc1ccc(F)cc1,inactive: 9.78%
12,CC(=NNC(=S)N1CCCCC1)c1ccccn1,inconclusive: -99.9%
13,COc1ccc(NC(=O)/C(C#N)=C/c2cc(C)n(-c3ccc(N4CCOCC4)c([N+](=O)[O-])c3)c2C)cc1,inconclusive: -46.8%
14,CCOCCCn1cnc2c3cc(F)ccc3n(C)c2c1=O,inactive: 13.7%
15,C=C(C(=O)c1ccccc1)C(CC(=O)c1ccccc1)c1ccccc1 (stereo not given),inconclusive: -97.5%
16,Cc1c(C(=O)Nc2nc(-c3ccccn3)cs2)oc2ccccc12,inconclusive: 27.6%
17,COc1ccccc1NC(=S)NN=C(C)c1ccccn1,inconclusive: -58.8%
18,Cc1ccc(CNC(=O)C2CCN(S(=O)(=O)c3c(C)noc3/C=C/c3ccco3)CC2)cc1,inactive: 23.8%
19,O=C(CN1C(=O)C2C3C=CC(C3)C2C1=O)NCCC1=CCCCC1 (stereo not given),inactive: 21.8%
20,Cc1ccc(C(=O)N2CCN(c3ccc(NC(=O)CSc4ccc(Cl)cc4)cc3)CC2)cc1,inconclusive: -32.3%
21,O=C(Nc1ccc(Br)cc1)C1CC(O)CN1C(=O)OCc1ccccc1 (stereo not given),inconclusive: -0.955%
22,COc1ccc(-n2c(C)c(C(C)=O)c3cc(O)ccc32)cc1,inconclusive: -65%
23,COc1ccc(C=C2CS(=O)(=O)CC(=Cc3ccc(OC)cc3)C2=O)cc1,inconclusive: -98.5%

# Retrieved by structure from above (3):
row,Structure (SMILES),"activity change, negative = inhibition"
18,Cc1ccc(CNC(=O)C2CCN(S(=O)(=O)c3c(C)noc3/C=C/c3ccco3)CC2)cc1,inactive: 23.8%
6,OCCCNc1nccc(-c2cc(Nc3cccc(Cl)c3)ncn2)n1,inconclusive: -98.4%
10,CCCCCCc1cc2cc(-c3nnc(-c4ccccc4)o3)c(=O)oc2cc1O,inconclusive: -32.5%

# The listing continues:

row,Structure (SMILES),"activity change, negative = inhibition"
1,O=C(c1cccc(F)c1)N1CCN(c2cccc(Cl)c2)CC1,inconclusive: -18.5%
2,COc1ccccc1N1CCN(CCCNC(=O)C2CCCN(c3ncnc4c3nc3n4CCCCC3)C2)CC1 (stereo not given),inactive: 0.249%
3,Cc1ccc(OCCn2cc(C(=S)N3CCCC3)c3ccccc32)cc1C,inconclusive: -39.8%
4,CCOC(=O)C1=C(C)NC(C)=C(C(=O)OCC)C1C(=O)OCC(=O)N(C)C1CCS(=O)(=O)C1 (stereo not given),inconclusive: 5.38%
5,CCN(C(=O)CSc1nnc(Nc2cccc(C)c2C)s1)C1CCS(=O)(=O)C1 (stereo not given),inconclusive: -22.1%
6,CCCC(=O)NCCCc1nc2ccccc2[nH]1,inactive: -10.5%
7,CC1CCC(NC(=O)CC2Oc3ccccc3NC2=O)CC1 (stereo not given),inactive: -0.482%
8,COc1ncnc2sc(-c3ccccc3)cc12,inconclusive: -22.7%
9,CCc1cc(Cl)c(OC)c(C(=O)NC[C@@H]2CCCN2CC)c1O,inconclusive: 50.3%
10,CC1(C)N=C(N)N=C(N)N1c1ccc(CCCCc2ccccc2)cc1,inconclusive: -25.2%
11,O=C(CN1C(=O)c2ccccc2C1=O)NNC1=NS(=O)(=O)c2ccccc21,inactive: -3.6%
12,N#Cc1c(Nc2ccccc2)sc(C(=O)c2ccc(F)cc2)c1N,inconclusive: 84.4%
13,COc1ccc(C)cc1S(=O)(=O)N(CC(=O)Nc1cc([N+](=O)[O-])ccc1C)c1ccc(C)c(C)c1,inconclusive: -27.9%
14,COc1cc(OC)cc(C(=O)N[C@H](C(=O)OCC(=O)c2ccc(C)c([N+](=O)[O-])c2)C(C)C)c1,inactive: -0.232%
15,COc1cccc(/C=C2\SC(=S)N(CCC(=O)NCCc3ccc(O)cc3)C2=O)c1,inconclusive: -51.2%
16,Cc1ccc(N2CCN(C3=NC(=O)/C(=C\c4cn[nH]c4-c4ccccc4)S3)CC2)cc1,inconclusive: -43.8%
17,CC[C@H]1OC(=O)[C@H](C)[C@@H](O[C@H]2C[C@@](C)(OC)[C@@H](O)[C@H](C)O2)[C@H](C)[C@@H](O[C@@H]2O[C@H](C)C[C@H](N(C)C)[C@H]2O)[C@](C)(O)C[C@@H](C)C(=NOCOCCOC)[C@H](C)[C@@H](O)[C@]1(C)O,inactive: 0.266%
18,COc1ccc(-c2csc3ncnc(NCCCO)c23)cc1,inconclusive: -75.5%
19,O=C1c2ccccc2C(Nc2ccc(Cl)cc2)N1CCN1CCOCC1 (stereo not given),inconclusive: 14.6%
20,CC(C)CCNC(=O)C1CCN(S(=O)(=O)c2ccc3c(c2)CC(C)N3C(=O)C2CC2)CC1 (stereo not given),inconclusive: -14.5%
21,C=CC(=O)OCCOCCOCCOCCOC(=O)C=C,inconclusive: 55.1% [at 11 µM]
22,C#CCN(C[C@@H]1[C@@H](OC(=O)NCCCCCC)[C@@H](OC(=O)NCCCCCC)Cn2c(=O)ccc(=O)n21)S(=O)(=O)c1ccc(C)cc1,inconclusive: -100%
